Test results as given in PubChem BioAssay AID624297 (National Center for Advancing Translational Sciences (NCATS), 2012).
The campaign covered roughly 340,000 compounds. About 6,200 (1.8%) were called active. The inconclusive results got no clear call from the source; some entries with a clear call stand among them for comparison. Calls come from the whole dose curve; as a rule, active = well fitted activation curve with a large enough effect; inconclusive = small, poorly fitted or top-dose-only effect; inactive = no such curve, though single readings can be large or run the other way. Where the call is inconclusive, the potency comes from a doubtful curve fit.

Assay: A quantitative high throughput screen for small molecules that induce DNA re-replication in SW480 colon adenocarcinoma cells. For re-replication activation: % of control where 0% means no effect. Note: nearly all actives have a fitted effect of over 55% in size.
Conditions: Hoechst DNA content imaging, 48 h; re-replication activation: at 46.1 µM (top of the series) unless noted
In short: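 Cells (250 per well) received 23 nL compound or DMSO by pin tool and were kept 48 hr at 37 C, 5% CO2. Nuclei were then stained with Hoechst for 40 min and scanned for DNA content.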
Potency is the fitted concentration of half-maximal effect.

| SMILES | Potency | re-replication activation |
| --- | --- | --- |
| COC(=O)c1c(NC(=O)CN2CCN(Cc3ccc4c(c3)OCO4)CC2)sc(C)c1C | inconclusive: 23.1 µM [activator, partial curve, poor fit] | – |
| Cc1nc2nc(SCC(=O)O)nn2c(C)c1Cc1c(F)cccc1Cl | – | inactive: 5.1% |
| Cc1ccc(-c2cn3nc(C)c(C)nc3n2)cc1 | inconclusive: 10 µM [activator, partial curve] | – |
| CC(C)NC(=O)N(C)C[C@H]1Oc2ccc(NC(=O)c3ccncc3)cc2C(=O)N([C@H](C)CO)C[C@@H]1C | – | inactive: -4.17% |
| COc1ccccc1NC(=O)CSc1nnnn1C | inconclusive: 14.6 µM [activator, partial curve, poor fit] | – |
| CCOc1ccc2nc(SC3CC(=O)N(c4ccc(OC)cc4)C3=O)sc2c1 (centres undefined) | inconclusive: 32.6 µM [activator, partial curve, poor fit] | – |
| Cc1ccc(/C=C/C(=O)Nn2cnnc2)cc1 | inconclusive: 25.9 µM [activator, single point] | – |
| COc1ccc(CCC(=O)N2CCN(c3ccccc3)CC2)cc1OC | – | inactive: -2.43% |
| CCC(C)n1c(=N)c(C#N)cc2c(=O)n3ccccc3nc21 (centres undefined) | inconclusive: 5.17 µM [activator, full curve] | – |
| Cc1ccc(S(=O)(=O)Oc2ccccc2/C=N/N=C(N)N)cc1 | inconclusive: 29.1 µM [activator, single point] | – |
| O=C(CSc1nnc(Cc2cccs2)n1CCc1ccccc1)N1CCCc2ccccc21 | – | inactive: 3.25% |
| CC1C/C(=C/c2ccco2)C(=O)/C(=C/c2ccco2)C1 (centres undefined) | inconclusive: 25.9 µM [activator, single point] | – |
| COC(=O)CCSCC(=O)Nc1ccc(S(=O)(=O)N2CCOCC2)cc1OC | inconclusive: 20.6 µM [activator, single point] | – |
| O=[N+]([O-])c1cc(Cl)cc2c1nc(NCCO)c1ccccc12 | inconclusive: 16.4 µM [activator, single point] | – |
| CCOc1cc(/C=C2\COc3ccccc3C2=O)cc(Br)c1OCC(=O)N(C)C | inconclusive: 1.84 µM [activator, single point] | – |
| COc1ccc(CCN2Cc3c(N)cccc3C2=O)cc1OC | – | inactive: -4.02% |
| O=C(O)c1ccc(COc2ccccc2/C=C2\NC(=O)N(Cc3ccccc3)C2=O)cc1 | inconclusive: 6.51 µM [activator, single point] | – |
| CCn1nc(C)cc1C(=O)Sc1ccc(C)cc1 | – | inactive: -6.44% |
| O=C(/C=C/c1ccncc1)c1cc(Cl)ccc1O | inconclusive: 16.4 µM [activator, single point] | – |
| N#Cc1c(CSCC(=O)O)cc(=O)n2c1[nH]c1ccccc12 | – | inactive: -6.11% |
| O=C(CCNC(=O)C1CCN(S(=O)(=O)c2ccccc2)CC1)NCc1cccc(Cl)c1 | – | inconclusive: 69.7% [activator] |
| O=C(CC1NCCNC1=O)OCc1ccccc1 (centres undefined) | inconclusive: 29.1 µM [activator, single point] | – |

| SMILES | Potency | re-replication activation |
| --- | --- | --- |
| COc1cc(OC)cc(C(=O)Oc2c(CN3CCOCC3)cc(Cl)c3cccnc23)c1 | inconclusive: 29.1 µM [activator, single point] | – |
| CSCCC(NC(=O)c1ccccc1Cl)C(=O)NNC(=O)c1ccccc1O (centres undefined) | inconclusive: 29.1 µM [activator, single point] | – |
| S=C(c1ccc(-c2ccc(Cl)cc2Cl)o1)N1CCCCC1 | inconclusive: 29.1 µM [activator, partial curve, poor fit] | – |
| COc1ccc(C(=O)CSc2nc(-c3ccccn3)nc(C)c2Cl)cc1 | inconclusive: 18.4 µM [activator, single point] | – |
| O=C(O)c1cc(N/N=C/c2ccc(-c3ccccc3)cc2)ccc1Cl | inconclusive: 16.4 µM [activator, partial curve, poor fit] | – |
| Fc1ccc(C2c3cccn3CCN2C(=S)Nc2cccc(Br)c2)cc1 (centres undefined) | – | inactive: -0.858% |
| COc1ccccc1/C=C1\SC(=S)N(CCC(=O)NCCCN2CCOCC2)C1=O | inconclusive: 20.6 µM [activator, single point] | – |
| CCOc1cc(CNCCSc2nnnn2C)cc(Br)c1OCc1ccccc1 | inconclusive: 16.4 µM [activator, partial curve, poor fit] | – |
| CC(C)=CCc1ccc(O)c(=O)cc1C(C)C | inconclusive: 2.59 µM [activator, full curve] | – |
| Cc1cc(-c2ccc(S(=O)(=O)NCc3ccc(F)cc3)cc2)on1 | inconclusive: 18.4 µM [activator, single point] | – |
| CCCCNC(=O)N1CCc2ccccc2C1 | active: 23.1 µM | – |
| CC(OC(=O)c1snc(C(=O)NC2CCCCC2)c1N)C(=O)NC1CCCCC1 (centres undefined) | inconclusive: 5.8 µM [activator, partial curve] | – |
| COc1cc2nc(/C=C/c3cc(OC)c(OC)c(OC)c3)sc2cc1SC | inconclusive: 1.03 µM [activator, partial curve, poor fit] | – |
| CN(C)CCCN(C(=O)c1cccs1)c1nc(-c2ccccc2)cs1 | inconclusive: 18.4 µM [activator, single point] | – |
| C[C@H](Nc1ccc(C(F)(F)F)cc1[N+](=O)[O-])C(=O)O | – | inconclusive: -38.5% [activator] |
| CSc1nc(SCC(N)=O)c2c3c(sc2n1)CN(C)CC3 | inconclusive: 0.0046 µM [activator, full curve, poor fit] | – |
| COc1ccc(NC(=O)NC2(C(=O)N3CCN(C)CC3)CCCCC2)cc1 | – | inactive: -6.38% |
| Oc1ccc(Cl)cc1CNc1ccc(Br)cn1 | inconclusive: 18.4 µM [activator, single point] | – |
| CC(C)c1onc(C(=O)NCc2cccs2)c1[N+](=O)[O-] | inconclusive: 18.4 µM [activator, single point] | – |
| Cc1nccc(-c2cccc(N/N=C(\C#N)C(=O)c3ccccc3)c2)n1 | inconclusive: 18.4 µM [activator, single point] | – |
| CCN(CC)CCCNC(=O)CSc1c2c(nc3cc(Cl)ccc13)CCCC2 | inconclusive: 20.6 µM [activator, single point] | – |
| CC(C)C[C@H](NC(=O)NC1CCCc2ccccc21)C(=O)O (some centres undefined) | inconclusive: 23.1 µM [activator, single point] | – |

3 of the compounds above, as labelled records.
COc1ccc(CCN2Cc3c(N)cccc3C2=O)cc1OC
  re-replication activation: inactive: -4.02%
O=C(O)c1ccc(COc2ccccc2/C=C2\NC(=O)N(Cc3ccccc3)C2=O)cc1
  Potency: inconclusive: 6.51 µM [activator, single point]
CCn1nc(C)cc1C(=O)Sc1ccc(C)cc1
  re-replication activation: inactive: -6.44%
